# Test results taken from PubChem BioAssay AID2685 (National Center for Advancing Translational Sciences (NCATS), 2010).
# In all, about 320,000 compounds went through this assay and about 2,100 (0.66%) were called active. Inconclusive results, whose numbers are uncertain, are shown with a selection of clear calls. Calls come from the whole dose curve; as a rule, active = well fitted inhibition curve with a large enough effect in the signal ratio, with a control signal flat (not every such curve was filed as active); inconclusive = small, poorly fitted or top-dose-only effect, or effect the other way, or a change in a side signal; inactive = flat fitted curve, though single readings scatter; the % refers to the signal ratio. Potencies beside an inconclusive call are fits to weak or partial responses and may not hold up.
# Assay: qHTS Assay for Lipid Storage Modulators in Drosophila S3 Cells
# Conditions: BODIPY lipid droplet fluorescence, 18-24 h, cells fed with added oleic acid; lipid storage change, negative = inhibition: at 46.1 µM (top of the series) unless noted
# Method in brief: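 Laser-scanning cytometry quantifies lipid droplet accumulation (500–530 nm total intensity; droplet/cell object ratio) in oleic acid-fed (400 uM added) Drosophila S3 cells treated with a concentration series. 20 uM Triacsin C defined 100% inhibition.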
# % is set by controls: 0 for no effect and ±100 for the full control effect; potency is the fitted concentration of half-maximal effect.
SMILES,Potency,"lipid storage change, negative = inhibition",outcome
CCOc1ccc(/C=C/c2nc(C#N)c(NCCCOC)o2)cc1,active: 18.4 µM,,
Cc1cc(NC(=O)CSc2nnc(CNc3ccc(F)cc3)n2C2CCCCC2)no1,"inconclusive: 1.84 µM [activator, full curve, poor fit]",,
NS(=O)(=O)c1ccc(CCNC(=O)c2ccco2)cc1,"inconclusive: 0.0046 µM [falling, full curve, poor fit]",,
CCn1cc(CN2CCC(n3nccc3NC(=O)c3ccc(OC)cc3)CC2)cn1,,inactive: 3.07%,
O=C(Cn1c(=O)oc2cc(S(=O)(=O)N3CCCCCC3)ccc21)NC1CCCCCCC1,,inconclusive: 8.8%,
Cc1cccc(NC(=O)c2cccc3c2-c2ccccc2C3=O)n1,,inconclusive: -25%,
COCc1ccc(C(=O)N2CCCCC2C(=O)Nc2ccc(-n3nc(C)cc3C)cc2)o1 (centres undefined),"inconclusive: 0.0052 µM [activator, full curve, poor fit]",,
O=C(O)C1CCCCC1C(=O)Nc1ccc(S(=O)(=O)N2CCCCCC2)cc1 (centres undefined),"inconclusive: 0.0046 µM [falling, full curve, poor fit]",,
Cc1ccc(C(=O)CSc2ccc(-c3ccncc3)nn2)cc1,,inconclusive: -0.347%,
COc1ccc(-n2c(=S)[nH]c3cc(C(=O)NCCCN4CCOCC4)ccc3c2=O)cc1,,inconclusive: 191%,
COc1ccc(/C([O-])=C(/C(=S)Nc2ccc(C)c(C)c2)n2c[n+](C)c3ccccc32)cc1OC,,inconclusive: -0.194%,
Cc1cccc(N2CC(C(=O)Nc3ccc(S(=O)(=O)N4CCCCC4)cc3)CC2=O)c1C (centres undefined),"inconclusive: 0.651 µM [falling, full curve, poor fit]",,
COc1ccc(C(=O)N/N=C/c2ccc(SC)cc2)cc1,,inconclusive: 14.3%,
CSc1nc(N)nc(SCC(=O)Nc2ccc(Cl)cc2)c1C#N,,inconclusive: -35.8%,
O=C1COc2ccc(-c3csc(NCCc4ccccc4)n3)cc2N1,,inconclusive: 37.7%,
COc1ccc(OC)c(-c2csc(NC(=O)COC(=O)C3CCC3)n2)c1,,inconclusive: 6.55%,
CC(C)(C)c1ccc(OCC(=O)NC2CCS(=O)(=O)C2)cc1 (centres undefined),"inconclusive: 16.4 µM [activator, single point]",,
CS(=O)(=O)N1CCC(C(=O)Nc2ccccc2Cl)CC1,"inconclusive: 0.116 µM [activator, full curve, poor fit]",,
O=C(O)C1CCCN1C(=O)Nc1ccccc1 (centres undefined),,inconclusive: -31.2%,
COc1cccc(NC(=O)COc2cc(O)c3c(c2)OC(C)(C)CC3=O)c1,"inconclusive: 29.1 µM [falling, single point]",,
Nc1[nH]n(-c2ccccc2)c(=O)c1N=Nc1ccc2c(c1)OCCO2,,inconclusive: -16.2%,
CCOC(=O)N1CCN(c2cc(N)c([N+](=O)[O-])cc2F)CC1,,inconclusive: -14.6%,
CCN(CCn1cccn1)C(=O)CC1C(=O)NCCN1CCc1ccccc1 (centres undefined),,inconclusive: -12.1%,
O=c1c2ccccc2c(/C=N/c2nnc(Cc3ccccc3)s2)c(O)n1-c1ccc(Cl)cn1,,inconclusive: 33.8% [activator],
c1ccc(OCCSc2nnc3sc4ccccc4n23)cc1,"inconclusive: 14.6 µM [activator, single point]",,

SMILES,Potency,"lipid storage change, negative = inhibition",outcome
COc1ccc(C(=O)N(Cc2ccc(N(C)C)cc2)C2CCS(=O)(=O)C2)cc1 (centres undefined),,inconclusive: 43.8%,
Cc1cccc(NC(=O)c2ccccc2NC(=O)C2CCCCC2)c1C,"inconclusive: 29.1 µM [falling, single point]",,
N#CC1=C2SCN(Cc3ccccc3)CN2C(=O)CC1c1ccccc1F (centres undefined),,inconclusive: 23.6% [at 9.22 µM],
Cc1ccc(-n2[nH]c(C)c(/C=N/Nc3ccc([N+](=O)[O-])cc3[N+](=O)[O-])c2=O)cc1,,inconclusive: -15.7%,
O=C1/C(=C/c2cccnc2)CC/C1=C\c1cccnc1,,inactive: 6.31%,
CCc1nc2ccccc2c(C(=O)Nc2ccc(F)cc2)c1C,"inconclusive: 18.4 µM [activator, single point]",,
CCCNC(=O)Cn1c(=O)n(CC(=O)N2CCCCC2)c(=O)c2sccc21,,,inactive [at 46.1 µM]
CCN1C(=NCCc2cccnc2)N[C@@H](c2ccccc2)C(C(=O)OC)=C1C,,inconclusive: 1.17%,
O=C(O)c1cccc(COCC(F)(F)C(F)F)c1,"inconclusive: 11.6 µM [activator, single point]",,
COC(=O)C1=C(CSc2nnnn2C)NC(=O)NC1c1cc(C)ccc1C (centres undefined),"inconclusive: 2.91 µM [activator, single point]",,
C[C@H](NC(=O)c1ccco1)C(=O)Nc1ccc2c(c1)OCO2,,inconclusive: 13.2%,
O=C(CCCC(=O)N1CCCc2ccccc21)N1CCCc2ccccc21,,inconclusive: -26.9% [at 9.22 µM],
COc1ccc(OC)c(NC(=O)CN2CCC(NC(=O)c3ccccc3C)CC2)c1,"inconclusive: 6.51 µM [falling, single point]",,
Cn1c(=O)cc(OCCCC(=O)NCc2ccc3c(c2)OCO3)c2ccccc21,"inconclusive: 0.411 µM [activator, full curve]",,
O=C(c1ccco1)N1CCCC(c2nc(-c3ccc(S(=O)(=O)NCc4ccccc4)cc3)no2)C1 (centres undefined),,inconclusive: -20.6%,
CCC(=O)CCC(=O)c1ccc2ccccc2c1,,inconclusive: 13.3%,
N/C(=N\OS(=O)(=O)c1ccc(Cl)cc1)c1ccncc1,,inconclusive: 213%,
COC(=O)c1[nH]c2ccccc2c1NC(=O)CCN1CCN(C2CCCCC2)CC1,,inconclusive: -9.58%,
CCOC(=O)C1CCN(C/C=C/c2ccccc2[N+](=O)[O-])CC1,,inconclusive: 220%,
COc1ccc(NC2CCCN(C(=O)CSc3ccncc3)C2)cc1 (centres undefined),active: 0.231 µM,,
COc1ccc(C)cc1Nc1n[n+](-c2ccccc2)c(-c2ccc(OC)c(OC)c2OC)s1,,inconclusive: -44.3%,
CCOC(=O)c1sc(N/N=C/c2cc(Br)c(O)c(OC)c2)nc1C,,inconclusive: -100%,
COc1ccc(CCNC(=O)c2ccc3nc4cc(Cl)ccc4c(=O)n3c2)cc1OC,,inconclusive: -122%,
COc1ccc(Cl)cc1NC(=O)c1ccc2c(SCC(=O)O)c3c(nc2c1)CCCC3,"inconclusive: 0.146 µM [activator, full curve, poor fit]",,
COc1ccc(NC(=O)c2ccccc2NC(=O)c2ccccc2)cc1,,inconclusive: 9.84%,

# In another format: results already given.
SMILES	Potency	lipid storage change, negative = inhibition	outcome
COc1ccc(C(=O)N(Cc2ccc(N(C)C)cc2)C2CCS(=O)(=O)C2)cc1 (centres undefined)		inconclusive: 43.8%	
Cc1cccc(NC(=O)c2ccccc2NC(=O)C2CCCCC2)c1C	inconclusive: 29.1 µM [falling, single point]		

# Additional entries follow:

SMILES,Potency,"lipid storage change, negative = inhibition",outcome
COc1ccc(N/C=C(\C#N)c2nc3ccccc3n2C)c(OC)c1,,inconclusive: 3.42%,
CCC(C)NCC(=O)Nc1ccc(-c2nc3cc(NC(=O)CNC(C)CC)ccc3o2)cc1 (centres undefined),,inconclusive: -25.2%,
CC(C)C[C@@H](CN=[N+]=[N-])N1CCN(C)CCC1=O,,inconclusive: -11.8%,
COC(=O)COc1ccc(/C=N/NS(=O)(=O)c2ccccc2)cc1,"inconclusive: 0.731 µM [rising, single point]",,
Cc1ccc(C(=O)Nc2cccc(NC(=O)c3ccc(C)c([N+](=O)[O-])c3)n2)cc1[N+](=O)[O-],"inconclusive: 18.4 µM [falling, single point]",,
COC(=O)c1scc(C)c1N/N=C(\C)c1cc(F)c(Cl)cc1F,"inconclusive: 29.1 µM [cytotoxic, single point]",,
Cn1ncc(Cl)c1C(=O)N/N=C/c1ccccn1,,inconclusive: 0.858%,
Cc1nn(CCCC(=O)O)c(C)c1[N+](=O)[O-],,inconclusive: 38.2%,
O=C(/C=C/c1ccc(O)cc1)c1ccccc1,"inconclusive: 9.2 µM [falling, partial curve, poor fit]",,
CCc1ccc2[nH]c(=O)c(C(c3nnnn3Cc3ccccc3)N3CCOCC3)cc2c1 (centres undefined),,inconclusive: 30.6%,
O=C(CCC1CCN(C(=O)c2cccc(Cl)c2F)CC1)Nc1ccccc1,,inconclusive: -14.9%,
CC1CCCCN1C(=O)COc1ccccc1F (centres undefined),"inconclusive: 0.082 µM [falling, full curve, poor fit]",,
O=C(NC1CCCCC1)c1cc(-c2ccccc2O)on1,,inconclusive: 27.1%,
O=C(NNC(=O)C1CCCC1)c1ccccc1F,"inconclusive: 6.51 µM [activator, partial curve]",,
O=C(CSc1nc2ccccc2[nH]1)NCCCn1ccnc1,"inconclusive: 16.4 µM [activator, single point]",,
COc1ccc(/C=C2/SC(=O)N(CCCCCC(=O)Nc3ccccc3C(=O)O)C2=S)cc1,,inconclusive: -31.8% [at 9.22 µM],
COc1cc(Cl)ccc1OCc1cc(C(=O)N2CCCC(OC)C2)no1 (centres undefined),"inconclusive: 16.4 µM [activator, single point]",,
COc1ccc(/C=C(/NC(=O)c2cccc([N+](=O)[O-])c2)C(=O)O)cc1OC,"inconclusive: 29.1 µM [falling, single point]",,
Cc1ccc(C(=O)NCC(=O)OCC(=O)Nc2ccc(Cl)cc2C(F)(F)F)cc1C,"inconclusive: 1.64 µM [activator, full curve, poor fit]",,
COC(=O)CCC(=O)Nc1ccc(Cl)c(Cl)c1,,inconclusive: 0.595%,
CCOC(=O)c1ccc(-c2ccc(/C=N/NC(=O)CN(c3cccc(C)c3)S(C)(=O)=O)o2)cc1,"inconclusive: 2.31 µM [activator, full curve, poor fit]",,
O=C(CCC(=O)c1ccc(F)cc1)Nc1cccc(Br)c1,,inconclusive: 16.9%,
Cc1oc2ccc(O)cc2c1C(=O)c1ccc([N+](=O)[O-])cc1,,inconclusive: -14.9%,
Cc1ccc(C(=O)COC(=O)c2cc(Cl)ccc2O)cc1[N+](=O)[O-],"inconclusive: 32.6 µM [falling, partial curve]",,

# Looked up above:
# `CC1CCCCN1C(=O)COc1ccccc1F` (centres undefined) | Potency: inconclusive: 0.082 µM [falling, full curve, poor fit]
# `COc1ccc(/C=C(/NC(=O)c2cccc([N+](=O)[O-])c2)C(=O)O)cc1OC` | Potency: inconclusive: 29.1 µM [falling, single point]
